In patent publication US20040248767A1 (AUTOGEN RESEARCH, published 2004):
These are yes or no findings as the source states them, for the method shown. Some binding calls cover weakened binding; strength is not graded here. Tags and fused reporters may be left off the sequences shown.

Assays:
[1] = target: T1, Serum amyloid A (SAA) purified from human sera / human plasma (Trace Scientific) (human) (UniProt P0DJI8); assay: SPR (Biacore J), SAA on CM5 chip, GST-fused fragment injected
T1 sequence (looked up): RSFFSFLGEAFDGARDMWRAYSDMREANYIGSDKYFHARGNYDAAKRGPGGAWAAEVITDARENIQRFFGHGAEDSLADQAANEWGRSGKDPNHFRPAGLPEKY

[2] = target: T1, Serum amyloid A (SAA) purified from human sera / human plasma (Trace Scientific) (human); assay: SPR (Biacore J), SAA on chip, Tanis Cplus protein injected
[3] = target: T1, Serum amyloid A (SAA) purified from human sera / human plasma (Trace Scientific) (human); assay: SPR (Biacore J), human plasma SAA on CM5 chip, GST-Tanis-C as analyte (FIGS. 10A and B)
[4] = target: T1, Serum amyloid A (SAA) purified from human sera / human plasma (Trace Scientific) (human); assay: SPR (Biacore J), human plasma SAA on CM5 chip, GST-Tanis-C 5 µg as analyte (FIG. 10A, B)
[5] = target: T2, GST-Tanis-C (COOH-terminal fragment of Tanis, amino acids 54-189) (human); assay: SPR (Biacore J), GST-Tanis-C on CM5 chip, human plasma SAA 5 µg as analyte (FIG. 10C)
T2 sequence: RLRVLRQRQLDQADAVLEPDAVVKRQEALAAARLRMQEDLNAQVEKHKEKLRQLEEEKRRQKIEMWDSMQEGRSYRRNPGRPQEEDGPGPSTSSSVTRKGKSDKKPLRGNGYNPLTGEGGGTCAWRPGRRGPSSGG

[6] = target: T2, GST-Tanis-C (COOH-terminal fragment of Tanis, amino acids 54-189) (human); assay: SPR (Biacore J), GST-Tanis-C on CM5 chip, human plasma SAA as analyte (FIG. 10C)

B1: GST-fused C-plus tanis (53-189aa) (protein, not shown: a dimerising Fc or GST; small tags and cut ends)
chain: VRLRVLRQRQLDQADAVLEPDAVVKRQEALAAARLRMQEDLNAQVEKHKEKLRQLEEEKRRQKIEMWDSMQEGRSYRRNPGRPQEEDGPGPSTSSSVTRKGKSDKKPLRGNGYNPLTGEGGGTCAWRPGRRGPSSGG
- binding [1]: binds
- binding [2]: binds

B2: GST-Tanis-C (COOH-terminal fragment of Tanis, amino acids 54-189) (protein, not shown: a dimerising Fc or GST; small tags and cut ends)
chain: RLRVLRQRQLDQADAVLEPDAVVKRQEALAAARLRMQEDLNAQVEKHKEKLRQLEEEKRRQKIEMWDSMQEGRSYRRNPGRPQEEDGPGPSTSSSVTRKGKSDKKPLRGNGYNPLTGEGGGTCAWRPGRRGPSSGG
- binding [3]: binds
- binding [4]: binds

B3: Serum amyloid A (SAA) purified from human sera / human plasma (Trace Scientific) (ligand, UniProt P0DJI8 19-122, looked up)
chain: RSFFSFLGEAFDGARDMWRAYSDMREANYIGSDKYFHARGNYDAAKRGPGGAWAAEVITDARENIQRFFGHGAEDSLADQAANEWGRSGKDPNHFRPAGLPEKY
notes: also called human plasma SAA
- binding [5]: binds
- binding [6]: binds
